Values from PubChem BioAssay AID1259308 (NCATS, 2017).
Aim: 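Candidate targets for better recombinant protein yield in mammalian cells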 (primary screen). System: human HEK293 embryonic kidney cells stably expressing firefly luciferase (HEK-CMV-Luc2-Hygro). Reagents: single siRNA against human genes, 0.8 pmol siRNA per well. Time to read-out: 72 h. Read-out: 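Luciferase light (ONE-Glo) measured on one replicate plate set and viability (CellTiter-Glo) on the other, scaled to a negative control siRNA, with robust z-scores and luciferase per cell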. Scale: total luciferase, z-score: higher = more reporter protein produced. Call rule: 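An siRNA counts as active if its total luciferase robust z-score exceeds 3; genes with two or more such siRNAs out of three were retested with fresh siRNAs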. Calls: active = raised luciferase; inactive = no rise.
The deposit covers about 59,000 reagents; this is a part drawn at random. About 1,510 of them (2.6%) count as active. 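Calls use total luciferase alone and ignore viability, so some active siRNAs may act by altering cell number.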 The numbers tell different reagents against one gene apart. Further read-outs or replicates are left out here.

AMIGO1 (adhesion molecule with Ig like domain 1) #1 | total luciferase, z-score = 2.4; outcome = inactive
AMIGO1 (adhesion molecule with Ig like domain 1) #2 | total luciferase, z-score = 1.41; outcome = inactive
AMIGO1 (adhesion molecule with Ig like domain 1) #3 | total luciferase, z-score = 0.479; outcome = inactive
SRSF1 (serine and arginine rich splicing factor 1) #1 | total luciferase, z-score = 1.34; outcome = inactive
SRSF1 (serine and arginine rich splicing factor 1) #2 | total luciferase, z-score = 1.31; outcome = inactive
SRSF1 (serine and arginine rich splicing factor 1) #3 | total luciferase, z-score = 1.45; outcome = inactive

An excerpt from the list above, for reference:
SRSF1 (serine and arginine rich splicing factor 1) #2 | total luciferase, z-score = 1.31; outcome = inactive
SRSF1 (serine and arginine rich splicing factor 1) #3 | total luciferase, z-score = 1.45; outcome = inactive

Continued:
HSD17B7 (hydroxysteroid 17-beta dehydrogenase 7) #1 | total luciferase, z-score = -0.35; outcome = inactive
HSD17B7 (hydroxysteroid 17-beta dehydrogenase 7) #2 | total luciferase, z-score = -2.02; outcome = inactive
HSD17B7 (hydroxysteroid 17-beta dehydrogenase 7) #3 | total luciferase, z-score = 0.45; outcome = inactive
WDR83 (WD repeat domain 83) #1 | total luciferase, z-score = -0.717; outcome = inactive
WDR83 (WD repeat domain 83) #2 | total luciferase, z-score = -0.369; outcome = inactive
WDR83 (WD repeat domain 83) #3 | total luciferase, z-score = 0.122; outcome = inactive
